Measurements reported in patent US20210198329A1 (PASTEUR INSTITUTE OF IRAN, published 2021).
Results are given in words; binding and its absence hold for the method and conditions named. Some entries that bind do so weakly or less than the wild type.

Protein sequences, listed by entry. Tags and fused reporters are not part of them. Residues count along the entry.
UniProt O75581, residues 20-1370: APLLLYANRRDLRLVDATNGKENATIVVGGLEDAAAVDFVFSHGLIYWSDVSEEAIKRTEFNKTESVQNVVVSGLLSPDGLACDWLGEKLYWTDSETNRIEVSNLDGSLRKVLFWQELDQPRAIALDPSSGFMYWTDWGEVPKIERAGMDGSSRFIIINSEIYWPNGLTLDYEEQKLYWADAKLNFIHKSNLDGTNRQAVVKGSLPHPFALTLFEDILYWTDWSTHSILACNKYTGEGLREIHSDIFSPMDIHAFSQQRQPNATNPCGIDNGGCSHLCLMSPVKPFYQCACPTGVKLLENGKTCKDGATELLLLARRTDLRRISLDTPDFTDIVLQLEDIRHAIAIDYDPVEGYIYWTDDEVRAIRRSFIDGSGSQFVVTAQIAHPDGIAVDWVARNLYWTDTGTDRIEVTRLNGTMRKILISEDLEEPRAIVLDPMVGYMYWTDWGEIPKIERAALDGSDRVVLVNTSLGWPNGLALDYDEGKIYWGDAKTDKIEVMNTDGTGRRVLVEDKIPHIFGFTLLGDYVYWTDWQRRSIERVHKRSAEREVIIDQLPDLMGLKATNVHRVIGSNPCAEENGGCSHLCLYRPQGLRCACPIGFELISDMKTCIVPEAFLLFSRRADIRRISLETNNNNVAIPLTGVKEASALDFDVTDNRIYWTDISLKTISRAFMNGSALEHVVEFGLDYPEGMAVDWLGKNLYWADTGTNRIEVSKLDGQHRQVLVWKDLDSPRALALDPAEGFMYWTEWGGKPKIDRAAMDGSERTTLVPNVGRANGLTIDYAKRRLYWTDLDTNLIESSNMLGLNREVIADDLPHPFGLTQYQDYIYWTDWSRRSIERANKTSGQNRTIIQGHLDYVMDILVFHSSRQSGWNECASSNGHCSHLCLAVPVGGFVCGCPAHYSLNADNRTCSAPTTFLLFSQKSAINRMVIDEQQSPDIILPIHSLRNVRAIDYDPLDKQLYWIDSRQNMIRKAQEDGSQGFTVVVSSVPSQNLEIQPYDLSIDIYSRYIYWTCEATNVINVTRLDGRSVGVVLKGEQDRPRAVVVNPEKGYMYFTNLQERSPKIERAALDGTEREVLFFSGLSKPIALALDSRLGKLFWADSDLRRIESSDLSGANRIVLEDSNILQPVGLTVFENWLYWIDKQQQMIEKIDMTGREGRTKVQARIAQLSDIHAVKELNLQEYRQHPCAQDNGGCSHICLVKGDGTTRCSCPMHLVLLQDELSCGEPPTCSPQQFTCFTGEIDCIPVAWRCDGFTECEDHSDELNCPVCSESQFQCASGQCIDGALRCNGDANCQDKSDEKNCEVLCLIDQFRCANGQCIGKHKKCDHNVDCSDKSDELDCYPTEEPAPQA

Target: low-density lipoprotein receptor-related protein 6 (LRP6) (UniProt O75581)
Experiment: LSPR spectroscopy; DKK1 immobilised on nanoparticles as ligand, LRP6 added as analyte; x axis is the LRP6 concentration (M), axis broken twice

binding: binds
B1: Dickkopf-1 (DKK1) (ligand, UniProt O94907 32-266, looked up)
chain: TLNSVLNSNAIKNLPPPLGGAAGHPGSAVSAAPGILYPGGNKYQTIDNYQPYPCAEDEECGTDEYCASPTRGGDAGVQICLACRKRRKRCMRHAMCCPGNYCKNGICVSSDQNHFRGEIEETITESFGNDHSTLDGYSRRTTLSSKMYHTKGQEGSVCLRSSDCASGLCCARHFWSKICKPVLKEGQVCTKHRRKGSHGLEIFQRCYCGEGLSCRIQKDHHQASNSSRLHTCQRH
